Test system: glattmuskuläre coronare Muscarinrezeptoren
Experiment: Isolated perfused Langendorff heart: antagonism of the carbachol effect on coronary flow (CF)
Set-up: species or system Wistar Ratten
Protocol: Diese günstigen Eigenschaften der Verbindungen I und II werden experimentell am Standardmodell der isoliert perfundierten Langendorff-Herzen überprüft. Meßparameter sind Herzfrequenz und Coronarfluß.
Männliche Wistar Ratten mit einem Körpergewicht zwischen 300 und 350 g wurden mit Pentobarbital (70 mg/kg i.p.) anaesthe siert. […] Die Herzen wurden über die Aorta mit Krebs-Henseleit-Puffer (KHB) retograd bei einem konstanten Druck von 70 mm Hg perfundiert. Die Zusammensetzung des KHB betrug in mM: Kochsalz 114, Kaliumchlorid 4,7, Natriumbicarbonat 23,6, Kaliumdihydrogenphosphat 1,2, Magnesiumsulfat 1,1, Calziumchlorid 2,5. 11 mM Glucose wurden als Substrat beigefügt. Die Herzfrequenz (HR) wurde durch einen Tachographen (IFD, Mülheim) gemessen, der Coronarfluß (CF) wurde mittels eines elektromagnetischen Flowmeters (IFD, Mülheim) in Verbindung mit einer Sonde in dem zuführenden Teil der Aorta bestimmt.
Nach einer 15-minütigen Stabilisierungsphase in allen Experimenten wurde die erste Dosis-Wirkungs-Kurve erstellt. Dies geschah durch die Gabe von dem Fluß angepaßten Bolus-Injektionen (0,01 ml/10 ml CF) mit ansteigenden Dosierungen von Carbachol (10⁻⁶ bis 10⁻²M). […] Darauffolgend gab man eine höhere Dosis des Antagonisten zu und es wurde der Einfluß von Carbachol auf den Coronarfluß (CF) und die Herzfrequenz (HF) erneut durch die Aufnahme von Dosis-Wirkungs-Kurven quantifiziert.

## CN1C2CCC1CC(OC(=O)C(CO)c1ccccc1)C2 (racemic) [Atropin, reference compound]
  Coronarselektivität (Affinität für coronare vs. frequenzbeeinflussende M-Rezeptoren): fehlt
